Laboratory results from PubChem BioAssay AID1487 (National Center for Advancing Translational Sciences (NCATS), 2009).
This is one part of the list. These are further read-outs of the screen, such as a control signal, another cell line or another target. No call is given for them. Compounds called inactive in the main read-out are mostly missing here. The note in brackets gives the kind of curve behind each potency; many fits are weak.

Experiment: qHTS Assay for Modulators of Lamin A Splicing
Settings: HeLa LMNA splicing GFP/RFP minigene ratio, 48 h
Outline: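 Read-out is the ratio of GFP to DsRed2 object intensity, acquired by 488 nm laser-scanning cytometry on HeLa lamin A-EGFP minigene reporter cells. Compound incubation 48 hrs at 37 °C in Opti-MEM with 2% FBS; DMSO 0.5% final.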

[1] = measured here: GFP splicing reporter channel
[2] = measured here: RFP viability control channel

SMILES: COCCn1cnnc1SCC(=O)Nc1cccc(S(=O)(=O)N2CCCCCC2)c1
- AC50 [1]: 0.158 µM [falling, full curve, poor fit]
- AC50 [2]: 0.158 µM [falling, full curve, poor fit]

SMILES: CCC(=O)N1c2ccccc2CC1C(=O)NCc1ccc(CC)cc1 (stereo not drawn)
- AC50 [1]: 0.316 µM [rising, partial curve, poor fit]
- AC50 [2]: 0.794 µM [rising, full curve, poor fit]

SMILES: COc1ccccc1CC(=O)NNS(=O)(=O)c1ccc([N+](=O)[O-])cc1
- AC50 [2]: 0.178 µM [falling, full curve, poor fit]

SMILES: O=C(Nc1cccc(S(=O)(=O)C(F)F)c1)c1ccc(Cl)c(S(=O)(=O)N2CCOCC2)c1
- AC50 [2]: 20 µM [rising, partial curve, poor fit]

SMILES: C=C(C)CNC(=S)N/N=C/c1ccc(N2CCOCC2)cc1
- AC50 [1]: 1.58 µM [rising, partial curve, poor fit]
- AC50 [2]: 15.8 µM [rising, partial curve, poor fit]

SMILES: CC1(C)CC(=O)C2=C(C1)OC(c1ccc(O)cc1)C(C#N)=C2N (stereo not drawn)
- AC50 [2]: 0.282 µM [rising, full curve, poor fit]

SMILES: CS(=O)(=O)c1ccc(Cl)c(C(=O)O)c1
- AC50 [2]: 5.62 µM [rising, single point]

SMILES: N#CC1=C(SCc2ccccc2)NC2=C(C(=O)CCC2)C1c1ccc2c(c1)OCO2 (stereo not drawn)
- AC50 [1]: 8.91 µM [rising, partial curve]
- AC50 [2]: 12.6 µM [rising, single point]

SMILES: CCOC(=O)c1[nH]c(C)c(C(=O)N2CCN(c3cccc(Cl)c3)CC2)c1C
- AC50 [2]: 31.6 µM [rising, single point]

SMILES: CN(C)CCOc1cccc(Br)c1
- AC50 [2]: 2.51 µM [rising, partial curve, poor fit]

SMILES: CC(=O)c1ccc(S(=O)(=O)NC(=O)NC2CCCCC2)cc1
- AC50 [2]: 14.1 µM [falling, single point]

SMILES: COc1ccc(C(=O)CSc2cc(C)nc(SCC(=O)c3ccc(C)cc3)n2)cc1
- AC50 [1]: 2.51 µM [rising, full curve, poor fit]
- AC50 [2]: 3.55 µM [rising, single point]

SMILES: CCc1c(C)nc2ncnn2c1N1CCCC(C(=O)Nc2cc(F)ccc2C)C1 (stereo not drawn)
- AC50 [2]: 22.4 µM [rising, single point]

SMILES: CCCCNC(=O)Cn1cnc2c(cnn2-c2ccc(C)c(C)c2)c1=O
- AC50 [2]: 0.112 µM [rising, partial curve, poor fit]

SMILES: Cc1ccc(-n2ncc(C(=O)NCc3ccc4c(c3)OCO4)c2C2CCN(C(=O)OC(C)(C)C)CC2)c(C)c1
- AC50 [2]: 5.62 µM [falling, single point]

SMILES: COc1cc(C(=O)N/N=C/c2sccc2C)cc(OC)c1OC
- AC50 [1]: 2 µM [falling, partial curve, poor fit]

SMILES: COc1ccc(Nc2nc(-c3ccc(OC)cc3)cs2)cc1
- AC50 [1]: 5.01 µM [rising, partial curve]

SMILES: CN(C)CCCN(C(=O)c1ccc2c(c1)CCCC2)c1nc2ccc(Cl)cc2s1
- AC50 [2]: 35.5 µM [rising, single point]

SMILES: Cc1ccc(OCc2nnc(SC(C)C(=O)O)n2Cc2ccccc2)cc1 (stereo not drawn)
- AC50 [2]: 0.0282 µM [falling, full curve, poor fit]

SMILES: O=C(Cc1coc2cc3c(cc12)CCC3)NCC1(N2CCCCC2)CCCCC1
- AC50 [2]: 14.1 µM [rising, partial curve, poor fit]

SMILES: O=C(O)C1C2C=CC(O2)C1C(=O)NCc1ccccc1Br (stereo not drawn)
- AC50 [1]: 5.62 µM [falling, single point]
- AC50 [2]: 3.55 µM [falling, single point]

SMILES: CC(C)=NNc1nc(-c2ccc([N+](=O)[O-])cc2)cs1
- AC50 [1]: 8.91 µM [rising, single point]
- AC50 [2]: 3.55 µM [rising, single point]

SMILES: Cc1ccccc1C(=O)c1c[nH]c(C(=O)NCc2ccco2)c1
- AC50 [1]: 8.91 µM [falling, partial curve]

SMILES: CCc1nnc(NC(=O)CSc2nccn2Cc2ccc(Cl)cc2)s1
- AC50 [1]: 0.0355 µM [rising, full curve]
- AC50 [2]: 0.0501 µM [rising, full curve, poor fit]

SMILES: O=C(O)CC(C(=O)Nc1cccc(C(F)(F)F)c1)C1CCCO1 (stereo not drawn)
- AC50 [2]: 35.5 µM [rising, single point]

SMILES: Cc1ccc(S(=O)(=O)NNC(=O)c2cccnc2)cc1
- AC50 [1]: 1.26 µM [rising, single point]
- AC50 [2]: 1.26 µM [rising, single point]

SMILES: CCCc1nnc(SCc2cc(=O)c3c(C)cc(C)cc3[nH]2)n1C
- AC50 [1]: 1.26 µM [rising, partial curve]
- AC50 [2]: 1.78 µM [rising, partial curve]

SMILES: COc1ccc(NC(=S)NCc2cccs2)c(OC)c1
- AC50 [1]: 0.0158 µM [rising, full curve, poor fit]

SMILES: CCc1c(C(=O)Nc2ccc(S(=O)(=O)N3CCOCC3)cc2)csc1C
- AC50 [1]: 11.2 µM [rising, partial curve, poor fit]
- AC50 [2]: 14.1 µM [rising, single point]

SMILES: CC1(c2ccc(OCC#N)cc2)C=C(c2ccc(OCC#N)cc2)n2nc(C(F)(F)F)nc2N1 (stereo not drawn)
- AC50 [1]: 11.2 µM [rising, partial curve]

SMILES: COCCNC(=O)c1ccc2c(c1)ncn2-c1cc(C)ccc1OC
- AC50 [2]: 1.26 µM [falling, single point]

SMILES: CCc1ccc(CNC(=O)Cn2nc(C)c3nn(-c4ccc(Cl)cc4)c(C)c3c2=O)cc1
- AC50 [1]: 22.4 µM [falling, single point]
- AC50 [2]: 22.4 µM [falling, single point]

SMILES: COc1ccc(OCC(=O)NCc2ccc3c(c2)CCN3C(=O)c2cccc(C)c2)cc1
- AC50 [2]: 3.55 µM [rising, single point]

SMILES: CSc1ccc(CCNC(=O)c2ccc(-n3c(C)cc4c3CCC(C)C4)cc2)cc1 (stereo not drawn)
- AC50 [2]: 0.1 µM [rising, single point]

SMILES: COc1ccccc1C(=O)NNC(=O)c1cccc(F)c1
- AC50 [2]: 3.98 µM [rising, full curve]

SMILES: CCN(CC)S(=O)(=O)c1cccc(-c2n[nH]c(=S)n2/N=C/c2ccc(OC)cc2)c1
- AC50 [1]: 22.4 µM [rising, single point]
